Results are given in words; binding and its absence hold for the method and conditions named. Binding seen in cells or lysates may run through a third protein. Some binding calls cover weakened binding; strength is not graded here.
Legend:
[1] = biological target: EGFP-MBP-BRCA2 WT (full-length) (human) (UniProt P51587); test: pull-down; GFP-TRAP beads pull-down of EGFP-MBP-BRCA2 from lysates of nocodazole-arrested DLD1 BRCA2-/- stable clones (also after incubation of the cells with the PLK inhibitor BTO); extraction buffer A, 2 h at 4 °C, washes up to 500 mM NaCl; western blot
[2] = biological target: endogenous BUBR1 (human (endogenous in DLD1)) (UniProt O60566); test: co-IP; immunoprecipitation of endogenous BUBR1 with mouse anti-BUBR1 antibody from nocodazole-treated DLD1 BRCA2-/- stable clones expressing BRCA2 WT or variants; extraction buffer A, washes up to 500 mM NaCl; western blot for PP2A-C and PLK1

Protein sequences, listed by entry. Tags and fused reporters are not part of them.
UniProt P51587: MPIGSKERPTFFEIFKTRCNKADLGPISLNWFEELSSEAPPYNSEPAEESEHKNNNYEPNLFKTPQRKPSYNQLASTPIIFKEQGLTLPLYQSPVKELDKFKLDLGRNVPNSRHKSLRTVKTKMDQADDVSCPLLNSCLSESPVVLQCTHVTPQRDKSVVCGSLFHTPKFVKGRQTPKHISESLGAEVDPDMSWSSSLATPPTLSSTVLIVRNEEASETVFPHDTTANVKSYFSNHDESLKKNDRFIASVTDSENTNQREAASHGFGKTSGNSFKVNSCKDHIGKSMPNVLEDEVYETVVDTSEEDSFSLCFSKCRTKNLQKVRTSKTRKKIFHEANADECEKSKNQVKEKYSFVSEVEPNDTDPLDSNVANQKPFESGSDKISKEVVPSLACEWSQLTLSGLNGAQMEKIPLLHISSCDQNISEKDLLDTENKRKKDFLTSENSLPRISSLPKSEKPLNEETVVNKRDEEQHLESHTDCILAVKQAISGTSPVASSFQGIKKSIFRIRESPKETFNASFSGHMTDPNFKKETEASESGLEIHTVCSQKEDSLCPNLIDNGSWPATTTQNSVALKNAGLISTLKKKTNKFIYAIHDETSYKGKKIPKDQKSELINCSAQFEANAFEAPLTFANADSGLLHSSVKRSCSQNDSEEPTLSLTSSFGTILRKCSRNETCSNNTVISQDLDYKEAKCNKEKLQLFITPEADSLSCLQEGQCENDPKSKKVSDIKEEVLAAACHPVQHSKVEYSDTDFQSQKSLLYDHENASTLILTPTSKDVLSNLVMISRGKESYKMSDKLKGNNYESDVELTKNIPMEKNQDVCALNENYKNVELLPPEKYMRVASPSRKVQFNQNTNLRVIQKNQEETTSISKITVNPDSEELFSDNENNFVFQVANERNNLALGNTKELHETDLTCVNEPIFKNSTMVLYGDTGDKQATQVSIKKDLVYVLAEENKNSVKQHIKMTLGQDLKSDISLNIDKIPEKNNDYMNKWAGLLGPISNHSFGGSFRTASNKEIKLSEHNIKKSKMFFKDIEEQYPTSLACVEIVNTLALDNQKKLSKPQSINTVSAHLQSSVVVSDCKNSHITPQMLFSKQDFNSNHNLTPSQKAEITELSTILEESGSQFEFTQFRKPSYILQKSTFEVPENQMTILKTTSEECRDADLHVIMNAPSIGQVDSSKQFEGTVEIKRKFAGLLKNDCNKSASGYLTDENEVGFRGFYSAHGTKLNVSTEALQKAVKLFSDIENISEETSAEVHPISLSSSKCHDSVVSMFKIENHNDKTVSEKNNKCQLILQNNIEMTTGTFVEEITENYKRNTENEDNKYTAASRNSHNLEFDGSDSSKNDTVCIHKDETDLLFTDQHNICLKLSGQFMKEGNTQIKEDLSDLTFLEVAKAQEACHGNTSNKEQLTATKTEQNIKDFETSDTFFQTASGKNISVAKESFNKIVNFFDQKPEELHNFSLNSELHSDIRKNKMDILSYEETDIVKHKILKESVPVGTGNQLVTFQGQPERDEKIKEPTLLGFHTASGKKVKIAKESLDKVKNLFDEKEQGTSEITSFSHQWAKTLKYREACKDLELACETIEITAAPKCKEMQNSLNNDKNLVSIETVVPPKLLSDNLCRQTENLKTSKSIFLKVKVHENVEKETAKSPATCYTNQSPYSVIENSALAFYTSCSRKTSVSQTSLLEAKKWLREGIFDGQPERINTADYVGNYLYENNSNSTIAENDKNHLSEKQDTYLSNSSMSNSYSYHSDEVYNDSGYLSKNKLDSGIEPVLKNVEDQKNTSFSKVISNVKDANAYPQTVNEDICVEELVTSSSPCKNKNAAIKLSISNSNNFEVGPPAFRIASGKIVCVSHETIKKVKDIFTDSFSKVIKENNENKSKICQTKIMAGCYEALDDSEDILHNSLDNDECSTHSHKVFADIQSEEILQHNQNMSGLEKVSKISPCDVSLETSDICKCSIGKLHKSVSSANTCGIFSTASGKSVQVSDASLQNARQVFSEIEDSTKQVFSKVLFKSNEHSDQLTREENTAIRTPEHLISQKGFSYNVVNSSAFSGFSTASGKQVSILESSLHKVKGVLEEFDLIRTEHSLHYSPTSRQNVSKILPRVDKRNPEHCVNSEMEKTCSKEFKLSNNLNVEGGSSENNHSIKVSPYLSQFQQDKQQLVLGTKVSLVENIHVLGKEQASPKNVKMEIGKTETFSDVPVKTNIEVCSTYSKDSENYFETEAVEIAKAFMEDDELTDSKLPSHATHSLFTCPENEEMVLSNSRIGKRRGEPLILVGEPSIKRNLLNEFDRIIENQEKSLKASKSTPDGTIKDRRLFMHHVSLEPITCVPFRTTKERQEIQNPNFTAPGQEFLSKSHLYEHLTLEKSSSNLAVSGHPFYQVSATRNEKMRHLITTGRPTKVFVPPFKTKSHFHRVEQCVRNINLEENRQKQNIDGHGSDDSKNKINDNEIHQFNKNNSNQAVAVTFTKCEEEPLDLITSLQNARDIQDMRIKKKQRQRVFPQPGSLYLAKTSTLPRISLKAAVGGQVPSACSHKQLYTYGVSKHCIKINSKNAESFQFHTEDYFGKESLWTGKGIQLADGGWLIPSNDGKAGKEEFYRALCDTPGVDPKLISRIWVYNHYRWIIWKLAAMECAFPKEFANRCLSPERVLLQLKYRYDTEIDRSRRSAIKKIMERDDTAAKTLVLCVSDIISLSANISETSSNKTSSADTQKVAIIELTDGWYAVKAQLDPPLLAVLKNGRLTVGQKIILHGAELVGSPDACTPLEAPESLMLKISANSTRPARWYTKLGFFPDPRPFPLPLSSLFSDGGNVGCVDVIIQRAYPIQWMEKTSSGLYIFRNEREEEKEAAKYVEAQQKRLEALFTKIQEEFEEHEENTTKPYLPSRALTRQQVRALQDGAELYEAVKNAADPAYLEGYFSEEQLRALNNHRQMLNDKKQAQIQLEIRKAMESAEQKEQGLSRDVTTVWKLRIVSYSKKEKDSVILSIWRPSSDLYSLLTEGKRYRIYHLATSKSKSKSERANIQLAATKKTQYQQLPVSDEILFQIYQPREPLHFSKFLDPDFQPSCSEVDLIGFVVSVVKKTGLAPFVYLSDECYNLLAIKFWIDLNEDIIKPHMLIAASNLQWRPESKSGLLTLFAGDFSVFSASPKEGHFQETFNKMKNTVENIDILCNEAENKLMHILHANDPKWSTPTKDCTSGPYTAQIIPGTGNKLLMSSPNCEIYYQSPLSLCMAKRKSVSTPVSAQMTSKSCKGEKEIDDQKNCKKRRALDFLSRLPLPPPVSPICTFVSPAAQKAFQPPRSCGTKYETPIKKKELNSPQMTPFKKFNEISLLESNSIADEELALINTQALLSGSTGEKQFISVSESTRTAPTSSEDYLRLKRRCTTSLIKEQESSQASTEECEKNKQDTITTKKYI
UniProt O60566: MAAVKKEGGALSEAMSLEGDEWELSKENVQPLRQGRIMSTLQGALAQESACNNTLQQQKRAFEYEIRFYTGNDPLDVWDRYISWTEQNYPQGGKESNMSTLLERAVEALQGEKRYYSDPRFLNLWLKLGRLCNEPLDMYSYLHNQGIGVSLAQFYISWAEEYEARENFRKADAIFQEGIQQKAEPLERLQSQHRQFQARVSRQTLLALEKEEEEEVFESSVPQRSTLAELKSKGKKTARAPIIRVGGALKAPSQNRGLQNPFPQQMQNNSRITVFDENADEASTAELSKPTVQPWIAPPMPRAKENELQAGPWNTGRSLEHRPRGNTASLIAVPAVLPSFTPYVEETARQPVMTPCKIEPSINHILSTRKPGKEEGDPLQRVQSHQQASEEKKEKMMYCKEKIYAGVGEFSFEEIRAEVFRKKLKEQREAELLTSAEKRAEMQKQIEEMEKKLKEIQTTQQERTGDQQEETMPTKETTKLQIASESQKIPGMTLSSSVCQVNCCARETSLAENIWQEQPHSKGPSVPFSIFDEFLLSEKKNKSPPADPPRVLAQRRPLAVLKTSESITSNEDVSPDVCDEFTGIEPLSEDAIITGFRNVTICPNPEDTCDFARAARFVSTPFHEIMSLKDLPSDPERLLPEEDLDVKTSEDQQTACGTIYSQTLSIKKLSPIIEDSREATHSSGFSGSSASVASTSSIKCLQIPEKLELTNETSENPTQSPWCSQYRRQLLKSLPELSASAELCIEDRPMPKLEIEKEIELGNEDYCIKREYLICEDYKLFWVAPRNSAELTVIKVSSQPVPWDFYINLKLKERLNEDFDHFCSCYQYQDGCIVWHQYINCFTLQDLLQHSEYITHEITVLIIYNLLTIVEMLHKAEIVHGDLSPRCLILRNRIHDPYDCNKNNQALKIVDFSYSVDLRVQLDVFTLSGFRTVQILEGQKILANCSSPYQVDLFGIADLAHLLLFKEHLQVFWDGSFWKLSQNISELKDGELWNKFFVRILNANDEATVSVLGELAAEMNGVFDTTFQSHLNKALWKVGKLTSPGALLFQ

Row | binding [1] | binding [2] | Substance
1 | binds |  | endogenous BUBR1 (from UniProt O60566 1-1050)
2 |  | binds | endogenous PLK1 (DLD1 cells) (from UniProt P53350 1-603) (enzyme)
3 | binds |  | pT680-BUBR1 (from UniProt O60566 1-1050)
